Experimental findings from the supplement of paper PMC10735217 are described below.

This test deals with HEK293A TEAD-LUC reporter. As to the kind of experiment: TEAD-luciferase reporter activity (YAP activation), robust Z score vs plate; higher = stronger YAP/TEAD activation. To be noted: 24 h.

Structures can show the parent of a compound that is named as a salt. The list shows a part of the results. This data set is noisy: repeats of one test often differ as much as different tests do.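 Human kidney-derived cells stably carry a construct in which eight TEAD-binding elements drive luciferase, measured by luminescence in a drug-repurposing library screen. A hit is any compound whose signal exceeds the plate mean by more than five robust Z scores.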

For `C/C(=N\OCC(=O)OCCN(C)C)c1ccc(Cl)cc1`, the TEAD-luciferase reporter activity is, setting by setting: (compound concentration: 200 nM) inactive: -1.24; (compound concentration: 2 uM) inactive: 1.21; (compound concentration: 10 uM) inactive: -1.44.
The corresponding values for `O=C1C(=O)C(CCC2CCC3CCCCC3C2)C(=O)c2ccccc21` (stereo not drawn) are inactive: -0.503, inactive: -2.27 and inactive: -2.43.
The corresponding values for `OC[C@H]1O[C@@H](c2ccc(Cl)c(Cc3ccc(OCCOC4CC4)cc3)c2)[C@H](O)[C@@H](O)[C@@H]1O` [bexagliflozin] are inactive: -0.802, inactive: 2.18 and inactive: 0.832.
For the compound `CC(C)NCC(O)COc1ccc(OCCOCC2CC2)cc1` (stereo not drawn), the TEAD-luciferase reporter activity by setting is: (compound concentration: 200 nM) inactive: -2.82; (compound concentration: 2 uM) inactive: -0.458; (compound concentration: 10 uM) inactive: 2.05.
The corresponding values for `CC(=O)Oc1cc(OC(C)=O)c2c(c1)O[C@H](c1cc(OC(C)=O)c(OC(C)=O)c(OC(C)=O)c1)[C@H](OC(=O)c1cc(OC(C)=O)c(OC(C)=O)c(OC(C)=O)c1)C2` are inactive: -1.21, inactive: -1.23 and inactive: -0.817.
The corresponding values for `Cc1[nH]c2ccccc2c1C[C@@H](NC(=O)[C@@H](N)Cc1cnc[nH]1)C(=O)N[C@@H](C)C(=O)N[C@@H](Cc1c[nH]c2ccccc12)C(=O)N[C@H](Cc1ccccc1)C(=O)N[C@@H](CCCCN)C(N)=O` [Examorelin] are inactive: -1.24, inactive: -1.46 and inactive: -1.63.
As for `CCOc1ccc(S(=O)(=O)NC(=O)c2ccccc2)cc1`, the TEAD-luciferase reporter activity is inactive: -0.673 (compound concentration: 200 nM), inactive: -0.886 (compound concentration: 2 uM) and inactive: -0.95 (compound concentration: 10 uM).
As for `Cc1cn([C@H]2C[C@H](N=[N+]=[N-])[C@@H](CO[PH](=O)O)O2)c(=O)[nH]c1=O` [Phosphazid], where the note is “compound concentration: 2 uM”, the TEAD-luciferase reporter activity was inactive: 1.39.
In the case of `Cc1cn([C@H]2C[C@H](N=[N+]=[N-])[C@@H](CO[PH](=O)O)O2)c(=O)[nH]c1=O`, the TEAD-luciferase reporter activity by setting is: (compound concentration: 200 nM) inactive: 1.32; (compound concentration: 10 uM) inactive: -0.863.
Taken in the same sequence, the figures for `O=P(O)(O)C(O)(Cc1cccnc1)P(=O)(O)O` [Risedronate] were inactive: 0.61 and inactive: 0.746.
As to `O=P(O)(O)C(O)(Cc1cccnc1)P(=O)(O)O` [risedronic acid sodium, delayed-release], the TEAD-luciferase reporter activity (compound concentration: 2 uM) was inactive: -1.82.
Consider `CCOC(=O)C(C)(C)Oc1ccc(Cl)cc1` [Clofibrate], for which the TEAD-luciferase reporter activity is, setting by setting: (compound concentration: 200 nM) inactive: -1.08; (compound concentration: 2 uM) inactive: -0.47; (compound concentration: 10 uM) inactive: 0.00829.
The corresponding values for `COCc1c(C(C)C)nc(C(C)C)c(/C=C/[C@@H](O)C[C@@H](O)CC(=O)O)c1-c1ccc(F)cc1` [cerivastatin sodium] are inactive: -1.49, inactive: -1.81 and inactive: -2.54.
Taken in the same sequence, the figures for `CCCCN(CCC1CCCCC1)Cc1ccc(C(=O)N[C@H](CCSC)C(=O)O)c(-c2ccccc2C)c1` were inactive: 4.11, inactive: -0.372 and inactive: 1.61.
Taken in the same sequence, the figures for `CCCCCCCCC[C@H](O)CC(=O)CCc1ccc(O)c(OC)c1` [10-Gingerol] were inactive: 0.612, inactive: -0.4 and inactive: 1.32.
Regarding `CC(C)c1cc(Nc2cccc(C(=O)O)c2)cc(C(C)C)c1O`, the TEAD-luciferase reporter activity is, setting by setting: (compound concentration: 200 nM) inactive: -2.74; (compound concentration: 2 uM) inactive: -0.655; (compound concentration: 10 uM) inactive: 1.71.
Taken in the same sequence, the figures for `O=C1NC(=O)C(C(=O)Nc2ccc(Cl)cc2)c2ccccc21` (stereo not drawn) were inactive: -0.408, inactive: -0.217 and inactive: 0.541.
Turning to `CNC(=S)NS(=O)(=O)c1cc(CCNC(=O)c2cc(Cl)ccc2OC)ccc1OC` [Clamikalant sodium], the TEAD-luciferase reporter activity (compound concentration: 200 nM) was inactive: -0.712, the TEAD-luciferase reporter activity (compound concentration: 2 uM) is inactive: -1.92 and the TEAD-luciferase reporter activity (compound concentration: 10 uM) is inactive: 2.57.
Taken in the same sequence, the figures for `CCN1CCC(N(C(=O)c2ccc(-n3ccnc3)cc2)C2CC2)CC1` were inactive: -0.907, inactive: 0.281 and inactive: 0.766.
The corresponding values for `CCOC(=O)c1cc(C(=O)NC)nc(C(=O)NC)c1` are inactive: -1.05, inactive: -1.44 and inactive: -0.98.
The corresponding values for `N[C@@H]1CCCCN(c2c(F)cc3c(=O)c(C(=O)O)cn(C4CC4)c3c2Cl)C1` [besifloxacin hydrochloride] are inactive: 1.09, inactive: -0.833 and inactive: -1.47.
Take `Nc1nc(/C(=N/O)C(=O)N[C@@H]2C(=O)N3C(C(=O)O)=C(/C=C4\CCN([C@@H]5CCNC5)C4=O)CS[C@H]23)ns1` [Ceftobiprole]: the TEAD-luciferase reporter activity (compound concentration: 200 nM) is inactive: -0.376 and the TEAD-luciferase reporter activity (compound concentration: 10 uM) is inactive: 0.959.
Turning to `NC(=O)C12NC(Cc3ccccc31)c1ccccc12` (stereo not drawn), the TEAD-luciferase reporter activity (compound concentration: 200 nM) was inactive: -1.29, the TEAD-luciferase reporter activity (compound concentration: 2 uM) was inactive: -0.376 and the TEAD-luciferase reporter activity (compound concentration: 10 uM) was inactive: -0.117.
Regarding `CN=C(N)NCCC[C@H](NC(=O)[C@H](CC(C)C)NC(=O)NNC(=O)[C@H](Cc1ccccc1)NC(=O)[C@@H](NC(=O)[C@H](CC(N)=O)NC(=O)[C@@H](Cc1c[nH]c2ccccc12)NC(=O)[C@@H](Cc1ccc(O)cc1)NC(C)=O)[C@@H](C)O)C(=O)N[C@@H](Cc1c[nH]c2ccccc12)C(N)=O`, the TEAD-luciferase reporter activity was inactive: -1.82 (compound concentration: 200 nM), inactive: 0.867 (compound concentration: 2 uM) and inactive: 3.13 (compound concentration: 10 uM).
The corresponding values for `O=[N+]([O-])c1c(Cl)c(Cl)cc2nc(O)c(O)nc12` [Licostinel] are inactive: -2.45, inactive: -1.57 and inactive: -0.914.
